These are yes or no findings as the source states them, for the method shown. Some binding calls cover weakened binding; strength is not graded here. Values belong to the molecule of their own block, whether it stands above or below them.
Tests used:
[1] = target: T1, Serrate (Drosophila), expression construct Ser-mtn (Drosophila) (UniProt P18168); experiment: S2 cell aggregation assay
T1 sequence (looked up): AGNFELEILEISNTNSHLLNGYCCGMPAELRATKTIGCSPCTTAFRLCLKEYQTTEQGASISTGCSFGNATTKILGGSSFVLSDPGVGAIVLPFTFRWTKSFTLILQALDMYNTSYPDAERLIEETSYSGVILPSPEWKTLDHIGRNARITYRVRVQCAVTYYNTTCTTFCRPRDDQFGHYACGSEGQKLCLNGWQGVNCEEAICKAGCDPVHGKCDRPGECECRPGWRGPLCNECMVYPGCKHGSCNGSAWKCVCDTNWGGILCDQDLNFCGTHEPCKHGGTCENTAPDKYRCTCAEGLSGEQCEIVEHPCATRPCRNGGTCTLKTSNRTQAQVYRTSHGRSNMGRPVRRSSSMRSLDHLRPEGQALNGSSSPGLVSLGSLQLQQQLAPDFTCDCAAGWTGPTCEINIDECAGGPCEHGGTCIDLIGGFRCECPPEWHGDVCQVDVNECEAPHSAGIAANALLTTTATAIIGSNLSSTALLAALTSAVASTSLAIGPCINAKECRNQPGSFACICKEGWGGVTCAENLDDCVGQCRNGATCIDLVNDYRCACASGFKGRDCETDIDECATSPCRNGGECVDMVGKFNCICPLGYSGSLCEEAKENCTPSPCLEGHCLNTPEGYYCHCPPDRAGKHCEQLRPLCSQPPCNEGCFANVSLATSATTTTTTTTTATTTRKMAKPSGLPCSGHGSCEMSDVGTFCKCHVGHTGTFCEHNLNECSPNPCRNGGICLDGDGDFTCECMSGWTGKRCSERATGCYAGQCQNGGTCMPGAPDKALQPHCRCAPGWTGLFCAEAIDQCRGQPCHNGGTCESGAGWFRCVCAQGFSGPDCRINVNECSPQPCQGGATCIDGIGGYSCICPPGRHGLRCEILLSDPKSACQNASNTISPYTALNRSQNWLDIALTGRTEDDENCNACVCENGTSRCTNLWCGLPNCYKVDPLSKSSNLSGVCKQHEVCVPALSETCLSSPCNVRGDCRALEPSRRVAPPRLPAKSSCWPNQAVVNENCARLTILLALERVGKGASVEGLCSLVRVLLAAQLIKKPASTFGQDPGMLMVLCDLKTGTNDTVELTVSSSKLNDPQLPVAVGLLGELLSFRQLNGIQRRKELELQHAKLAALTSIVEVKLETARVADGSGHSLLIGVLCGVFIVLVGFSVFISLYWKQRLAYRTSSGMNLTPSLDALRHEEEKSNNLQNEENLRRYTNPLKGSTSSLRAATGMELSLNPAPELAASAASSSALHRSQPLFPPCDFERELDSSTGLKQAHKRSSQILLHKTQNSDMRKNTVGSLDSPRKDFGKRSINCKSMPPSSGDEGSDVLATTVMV

Sequences of proteins named here, by UniProt entry; tags and fusion partners are left off. Residues count along the entry.
UniProt P07207, residues 53-2703: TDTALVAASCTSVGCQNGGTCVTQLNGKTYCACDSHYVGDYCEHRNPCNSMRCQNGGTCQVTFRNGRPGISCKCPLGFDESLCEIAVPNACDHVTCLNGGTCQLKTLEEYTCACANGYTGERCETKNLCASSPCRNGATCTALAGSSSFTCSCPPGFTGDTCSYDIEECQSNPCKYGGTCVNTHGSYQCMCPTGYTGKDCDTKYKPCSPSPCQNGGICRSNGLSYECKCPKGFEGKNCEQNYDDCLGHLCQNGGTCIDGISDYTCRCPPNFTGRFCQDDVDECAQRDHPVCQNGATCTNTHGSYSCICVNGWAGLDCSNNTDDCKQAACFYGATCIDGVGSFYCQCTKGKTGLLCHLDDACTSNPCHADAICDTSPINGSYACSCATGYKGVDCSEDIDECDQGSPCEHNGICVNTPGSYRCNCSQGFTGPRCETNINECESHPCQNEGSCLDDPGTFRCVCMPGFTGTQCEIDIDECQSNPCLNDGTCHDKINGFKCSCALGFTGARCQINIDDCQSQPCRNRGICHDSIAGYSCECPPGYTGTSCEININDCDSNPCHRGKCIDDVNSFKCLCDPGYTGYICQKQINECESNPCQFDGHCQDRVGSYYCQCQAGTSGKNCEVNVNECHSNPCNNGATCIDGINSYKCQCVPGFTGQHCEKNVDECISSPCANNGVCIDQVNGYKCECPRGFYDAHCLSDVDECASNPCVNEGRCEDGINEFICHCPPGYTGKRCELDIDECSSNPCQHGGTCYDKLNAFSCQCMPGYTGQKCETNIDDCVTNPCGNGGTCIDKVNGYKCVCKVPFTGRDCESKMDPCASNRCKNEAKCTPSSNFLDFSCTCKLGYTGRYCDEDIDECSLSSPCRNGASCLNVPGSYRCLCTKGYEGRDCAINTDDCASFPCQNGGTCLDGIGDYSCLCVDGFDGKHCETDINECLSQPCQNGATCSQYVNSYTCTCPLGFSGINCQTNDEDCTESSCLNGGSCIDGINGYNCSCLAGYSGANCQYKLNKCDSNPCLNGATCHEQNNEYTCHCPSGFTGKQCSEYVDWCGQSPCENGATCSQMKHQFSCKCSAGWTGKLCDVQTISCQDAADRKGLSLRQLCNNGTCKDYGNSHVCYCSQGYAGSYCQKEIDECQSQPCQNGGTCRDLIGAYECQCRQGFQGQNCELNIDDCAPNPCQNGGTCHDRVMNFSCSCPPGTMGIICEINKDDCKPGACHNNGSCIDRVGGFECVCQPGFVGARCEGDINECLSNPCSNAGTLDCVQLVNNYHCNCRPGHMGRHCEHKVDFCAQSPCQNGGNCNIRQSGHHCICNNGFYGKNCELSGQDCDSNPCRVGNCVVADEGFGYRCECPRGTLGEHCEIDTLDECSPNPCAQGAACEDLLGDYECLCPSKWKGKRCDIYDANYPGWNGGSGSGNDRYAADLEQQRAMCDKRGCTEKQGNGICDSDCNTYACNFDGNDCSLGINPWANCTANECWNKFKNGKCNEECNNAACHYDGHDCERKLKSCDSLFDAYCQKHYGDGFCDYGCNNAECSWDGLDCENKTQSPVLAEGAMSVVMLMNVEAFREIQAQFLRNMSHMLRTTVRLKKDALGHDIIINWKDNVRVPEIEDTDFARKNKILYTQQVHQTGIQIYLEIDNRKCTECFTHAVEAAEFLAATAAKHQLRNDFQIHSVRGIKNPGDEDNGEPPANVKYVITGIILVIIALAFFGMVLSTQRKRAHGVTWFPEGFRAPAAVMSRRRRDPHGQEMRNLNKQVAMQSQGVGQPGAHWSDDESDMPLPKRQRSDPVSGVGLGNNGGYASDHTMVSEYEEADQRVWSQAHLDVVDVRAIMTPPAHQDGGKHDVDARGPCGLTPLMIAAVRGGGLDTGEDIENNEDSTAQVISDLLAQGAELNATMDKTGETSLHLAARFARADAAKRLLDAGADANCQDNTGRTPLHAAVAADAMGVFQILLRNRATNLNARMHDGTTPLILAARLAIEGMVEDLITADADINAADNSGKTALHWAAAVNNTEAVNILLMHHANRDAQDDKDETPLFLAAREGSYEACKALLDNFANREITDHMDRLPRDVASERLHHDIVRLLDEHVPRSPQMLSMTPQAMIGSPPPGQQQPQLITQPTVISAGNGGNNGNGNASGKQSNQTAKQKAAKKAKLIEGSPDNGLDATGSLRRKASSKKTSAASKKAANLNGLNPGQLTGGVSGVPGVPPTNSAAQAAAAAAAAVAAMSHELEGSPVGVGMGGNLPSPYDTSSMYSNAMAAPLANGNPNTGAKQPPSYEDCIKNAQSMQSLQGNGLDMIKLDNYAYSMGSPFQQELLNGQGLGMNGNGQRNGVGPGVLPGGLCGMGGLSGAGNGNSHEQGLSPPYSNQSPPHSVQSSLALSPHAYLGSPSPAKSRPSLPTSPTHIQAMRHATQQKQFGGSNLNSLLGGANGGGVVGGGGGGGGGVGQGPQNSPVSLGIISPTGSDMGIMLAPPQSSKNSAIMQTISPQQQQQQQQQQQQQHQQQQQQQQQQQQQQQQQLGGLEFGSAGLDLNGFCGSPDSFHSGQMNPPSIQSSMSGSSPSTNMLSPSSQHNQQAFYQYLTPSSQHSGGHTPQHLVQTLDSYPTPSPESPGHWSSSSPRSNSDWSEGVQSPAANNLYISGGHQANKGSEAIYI

[2] = target: Notch (Drosophila), full length Notch expression construct #1 pMtNMg (Drosophila) (UniProt P07207); experiment: S2 cell aggregation assay

binding [1]: binds
Molecule: Notch (Drosophila), full length Notch expression construct #1 pMtNMg (from UniProt P07207 53-2703) (receptor)

binding [2]: binds
B1: Serrate (Drosophila), expression construct Ser-mtn (ligand, UniProt P18168 83-1407, looked up)
chain: T1 sequence (looked up)
notes: whole, on cells

From patent US20050112121A1 (YALE UNIVERSITY, published 2005)
